Data from PubChem BioAssay AID1347075 (National Center for Advancing Translational Sciences (NCATS), 2019).
The campaign covered roughly 400,000 compounds. About 5,500 (1.4%) were called active. Inconclusive means that the source gave no clear call. Such entries were picked first, then a sample of the others. The call rests on the fitted dose curve; in most records, active means well fitted cell-killing curve with a large enough effect; inconclusive means small, poorly fitted or top-dose-only effect, or effect the other way; inactive means flat fitted curve, though single readings scatter. Where the call is inconclusive, the potency comes from a doubtful curve fit.

Experiment: qHTS assay for MDR1-selective chemotherapeutics: Primary screen using the parental adenocarcinoma cell KB-3-1; further: nearly all actives have a fitted effect of over 60% in size
Conditions: KB-3-1 viability, CellTiter-Glo ATP luminescence, 72 h; activity change, negative = cytotoxic: at 46.1 µM (top of the series)
Method in brief: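 Parental KB-3-1 adenocarcinoma cells in phenol-red-free DMEM with 10% FBS were pin-treated with compounds at several concentrations, incubated 72 h at 37 °C, and viability read by CellTiter-Glo luminescence; concentration-effect curves were fitted after normalization.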
On the % scale 0 is the no-effect control and ±100 the full control effect; potency means the concentration at half of the fitted maximal effect.

| SMILES | Potency | activity change, negative = cytotoxic |
| --- | --- | --- |
| O=C1C(C2=NC(c3ccccn3)C3C(=O)N(c4ccc(OC(F)(F)F)cc4)C(=O)C23)=C(O)c2ccccc21 (stereo not drawn) | active: 4.61 µM | – |
| CC(=O)c1ccc(-c2cnc3c(NC=O)cc(-c4ccc(C(=O)N5CCOCC5)cc4)cn23)cc1 | inconclusive: 16.4 µM [cytotoxic, single point] | – |
| CN(Cc1ccccc1)C(=O)c1ccc(NC(=O)C2CCN(C(=O)OC(C)(C)C)CC2)cc1 | inconclusive: 23.1 µM [cytotoxic, single point] | – |
| COc1cc(OC)c(NC(=O)c2c(C)nn(-c3ccc(C)cc3)c2-n2cccc2)cc1Cl | active: 23.1 µM | – |
| O=C(/C=C/c1cccs1)N1CCC2(CC1)Oc1ccc(Cl)cc1C(=O)C21CC(c2cccnc2)=NO1 (stereo not drawn) | inconclusive: 18.4 µM [cytotoxic, single point] | – |
| COCCN1C[C@@H](CO)O[C@@H](n2cnc3c(NCC(C)C)ncnc32)C1 | inactive | – |
| Cc1ccc(S(=O)(=O)N(C)C[C@@H]2Oc3ccc(NC(=O)CCC(F)(F)F)cc3CC(=O)N([C@@H](C)CO)C[C@@H]2C)cc1 | inconclusive: 2.06 µM [cytotoxic, full curve] | – |
| Cc1ccc(S(=O)(=O)N(CC2CO2)c2cccc([N+](=O)[O-])c2)cc1 (stereo not drawn) | inconclusive: 29.1 µM [cytotoxic, single point] | – |
| COc1ccc(N2CCN(C(c3cccs3)C(C)NS(C)(=O)=O)CC2)cc1 (stereo not drawn) | inconclusive: 29.1 µM [rising, single point] | – |
| CC(NC(=O)CN(c1cccc(C(F)(F)F)c1)S(=O)(=O)c1ccc(Cl)c([N+](=O)[O-])c1)c1ccccc1 (stereo not drawn) | inconclusive: 18.4 µM [cytotoxic, single point] | – |
| CCCCCCCCCCOC(=O)C[N+](C)(C)C/C=C(/C)Cl | inactive | – |
| OCC1(CC2CCCCO2)CCN(Cc2cccc(O)c2)CC1 (stereo not drawn) | inconclusive: 29.1 µM [rising, single point] | – |
| COc1ccc(-c2[nH]c(-c3ccc(C)cc3)nc2SCC(=O)NCc2ccco2)cc1OC | inactive | – |
| Cc1cccn2c(CNCCc3ccccn3)c(C(=O)N3CCOCC3)nc12 | – | inconclusive: -66.9% |
| CC(C)C1C(=O)N(Cc2cn(CC3CCCCC3)nn2)CCS(=O)(=O)N1Cc1ccc(-c2ccccc2)cc1 (stereo not drawn) | inconclusive: 20.6 µM [cytotoxic, single point] | – |
| CCC1=Nc2cc(C(=O)NCCCOC)ccc2Sc2ccccc21 | active: 0.82 µM | – |
| COc1ccc(-c2nnc(SCc3ccc(C(=O)O)cc3)n2C)cc1OC | inactive | – |
| Nc1nc(=S)c2ncn(C3OC(CO)CC3O)c2[nH]1 (stereo not drawn) | inconclusive: 29.1 µM [cytotoxic, single point] | – |
| O=C(N/N=C1\CC2CC=CC12)c1ccc(O)cc1 (stereo not drawn) | inconclusive: 23.1 µM [rising, partial curve, poor fit] | – |
| CC(=NCCc1c(C)[nH]c2ccc(C)cc12)C1=C(O)CC(c2ccccc2)CC1=O (stereo not drawn) | active: 5.8 µM | – |
| OCc1nc2ccccc2[nH]1 | inconclusive: 25.9 µM [rising, single point] | – |
| C=CCN1C(=O)C2(C(C#N)=C(N)Oc3n[nH]c(CCC)c32)c2ccccc21 (stereo not drawn) | inactive | – |
| COc1c(Cl)cc(C(=O)Nc2cccc(-c3nc4ccccc4[nH]3)c2)cc1Cl | inconclusive: 18.4 µM [cytotoxic, single point] | – |

| SMILES | Potency | activity change, negative = cytotoxic |
| --- | --- | --- |
| CCN1CCN(C(=O)c2ccc3c(=O)n(CCC4=CCCCC4)c(=O)[nH]c3c2)CC1 | inactive | – |
| COc1ccc(-n2ncc3c(N(C)C4CCCCC4)ncnc32)cc1 | inconclusive: 29.1 µM [cytotoxic, single point] | – |
| O=C(Nc1nnc(S(=O)(=O)N2CCCCCC2)s1)c1ccc(Br)cc1 | inconclusive: 29.1 µM [cytotoxic, single point] | – |
| Cc1ccc2oc(-c3cc(NC(=O)c4ncn[nH]4)ccc3O)nc2c1 | inconclusive: 29.1 µM [rising, single point] | – |
| Cc1cc(C(=O)Cn2ncc(Cl)c(Cl)c2=O)c(C)n1CC(F)(F)F | inconclusive: 29.1 µM [cytotoxic, single point] | – |
| C=C(C(=O)c1ccccc1)C(CC(=O)c1ccccc1)c1ccccc1 (stereo not drawn) | inconclusive: 20.6 µM [cytotoxic, single point] | – |
| CCCn1c(NC(=O)c2ccccc2Br)nc2ccccc21 | inconclusive: 29.1 µM [cytotoxic, single point] | – |
| CC(=O)c1cccc(Nc2c3c(nc4ccccc24)CCC3)c1 | active: 1.84 µM | – |
| S=C(NCCN1CCOCC1)N/N=C/c1c2ccccc2cc2ccccc12 | inconclusive: 35.5 µM [cytotoxic, single point] | – |
| Cc1ccc(-c2cc(C(=O)NCc3ccccn3)c3ccccc3n2)cc1C | inconclusive: 18.4 µM [cytotoxic, single point] | – |
| COC(=O)C(Nc1ccccc1Cl)(c1cc(C)c(O)c(C)c1)C(F)(F)F (stereo not drawn) | inconclusive: 23.1 µM [cytotoxic, single point] | – |
| COc1ccc(S(=O)(=O)Cc2ccc(C(=O)N3CCN(c4ccccc4)CC3)o2)cc1 | inactive | – |
| CCOc1ccccc1-c1cc(C(=O)N/N=C/c2ccc3c(c2)OCO3)c2ccccc2n1 | inconclusive: 29.1 µM [cytotoxic, single point] | – |
| Cc1cccc(Oc2nc3ccccn3c(=O)c2/C=C(\C#N)c2nc3ccccc3s2)c1C | inconclusive: 29.1 µM [rising, single point] | – |
| C/C(=N\NC(=O)C1(C)CC1(Br)Br)c1cccc(NC(=O)c2ccc(C)o2)c1 (stereo not drawn) | inactive | – |
| Nc1ccn(CCCN2CCN(C(=O)C3CC3)CC2)c(=O)n1 | – | inconclusive: 46.5% |
| COc1ccccc1C1NC(=O)CS1 (stereo not drawn) | – | inconclusive: 32.1% |
| CC(C)c1nnc(NC(=O)c2nc(S(=O)(=O)Cc3ccc(F)cc3)ncc2Cl)s1 | inconclusive: 23.1 µM [cytotoxic, single point] | – |
| CC1(C(=O)Nc2cccc3cccnc23)CCN1Cc1cccc2c1OCO2 (stereo not drawn) | inconclusive: 25.9 µM [cytotoxic, single point] | – |
| CCC1(O)C(=O)OCc2c1cc1n(c2=O)Cc2cc3cc(O)ccc3nc2-1 (stereo not drawn) | inconclusive: 29.1 µM [cytotoxic, partial curve, poor fit] | – |
| CC1=CC(=O)C=C(C)C1=NOS(=O)(=O)c1ccccc1 | inconclusive: 29.1 µM [cytotoxic, single point] | – |
| CCCCCCCCCCn1c2c(c(=N)c3c1CCC3)CCC2 | inconclusive: 0.731 µM [cytotoxic, full curve, poor fit] | – |
| COc1ccc(C2SCC(=O)N2CCCN(C)C)cc1 (stereo not drawn) | inconclusive: 29.1 µM [rising, single point] | – |

| SMILES | Potency | activity change, negative = cytotoxic |
| --- | --- | --- |
| Cc1ccc(Nc2nc(NCC3CC3)nc3ccsc23)c(C)c1 | active: 20.6 µM | – |
| CN1C/C(=C\c2ccc(N3CCOCC3)cc2)C(=O)/C(=C/c2ccc(N3CCOCC3)cc2)C1 | inconclusive: 23.1 µM [cytotoxic, single point] | – |
| O=C(C1CCN(S(=O)(=O)c2ccccc2)CC1)N1CCOCC1 | inconclusive: 3.26 µM [cytotoxic, partial curve, poor fit] | – |
| Cc1ccnc(NC(=O)c2ccc(S(=O)(=O)NCc3ccco3)cc2)c1 | inconclusive: 16.4 µM [cytotoxic, single point] | – |
| Cc1ccc(Cl)cc1NC(=O)C[n+]1ccc(Cc2ccc([N+](=O)[O-])cc2)cc1 | active: 10.3 µM | – |
| C=CCNC(=O)c1c2c(nc3ccccc13)-c1ccccc1CC2 | inactive | – |
| COc1cc(C(CCN2CCCC(C)C2)c2c(OC)cc(OC)c3c(-c4ccccc4)cc(=O)oc23)cc(OC)c1OC (stereo not drawn) | inconclusive: 32.6 µM [cytotoxic, single point] | – |
| Cc1cccc(CS(=O)(=O)c2ncc(Cl)c(C(=O)Nc3ccc(F)cc3)n2)c1 | inconclusive: 23.1 µM [cytotoxic, single point] | – |
| CC1(C)Cc2c(cnn2-c2ccccc2)C(NC(=O)c2ccoc2)C1 (stereo not drawn) | inactive | – |
| OCCC#Cc1ccc(CN2CCN(C3CCCCC3)C(CCO)C2)cc1 (stereo not drawn) | inconclusive: 29.1 µM [cytotoxic, single point] | – |
| CCOc1ccccc1NC(=O)CN(c1ccc(OC)cc1)S(=O)(=O)c1c(C)noc1C | active: 5.8 µM | – |
| Nc1ccc2cccnc2c1 | inconclusive: 20.6 µM [cytotoxic, full curve, poor fit] | – |
| O=C(Nc1ccccn1)c1cc2ccccc2o1 | inconclusive: 18.4 µM [cytotoxic, single point] | – |
| Cc1cc(C)n(-c2nc3cc(Cl)c(Cl)cc3nc2Nc2ccc(F)cc2C)n1 | inactive | – |
| COc1ccc(CNC(=O)c2cc(-c3cccs3)nc3ccccc23)c(OC)c1 | inactive | – |
| COc1cc(NS(=O)(=O)c2ccc(N/C=C(\C#N)c3nc4ccccc4o3)cc2)nc(OC)n1 | inactive | – |
| CCOc1ccccc1N1CC(c2nc3ccccc3n2CCOc2ccc(OC)cc2)CC1=O (stereo not drawn) | inactive | – |
| O=C(O)CCc1ccc(-c2ccc(Br)cc2)o1 | inactive | – |
| Cc1ccc(NC(=S)NCCN(C2CCCCC2)C2CCCC2)cc1C | inconclusive: 16.4 µM [cytotoxic, single point] | – |
| CCN(CC)S(=O)(=O)c1cc(NC(=O)C(C)Nc2ccccc2N2CCOCC2)ccc1C (stereo not drawn) | inconclusive: 32.6 µM [cytotoxic, single point] | – |
| CCCCCc1cc(=O)oc2c(C(CCN(CC)CC)c3ccc(N(C)C)cc3)c(OC)cc(OC)c12 (stereo not drawn) | inconclusive: 18.4 µM [cytotoxic, single point] | – |
| COC(=O)[C@@]12OC[C@]34[C@H]([C@@H](O)[C@@H]1O)[C@@]1(C)C(=O)C(O[C@@H]5OC(CO)[C@@H](O)[C@@H](O)[C@@H]5O)=C[C@@H](C)[C@@H]1C[C@H]3OC(=O)[C@H](OC(=O)/C=C(\C)C(C)(C)OC(C)=O)[C@@H]24 (stereo partly drawn) | inconclusive: 29.1 µM [cytotoxic, single point] | – |

Part of the list above in order of heavy-atom count, smallest number first.

| SMILES | Potency | activity change, negative = cytotoxic |
| --- | --- | --- |
| Nc1ccc2cccnc2c1 | inconclusive: 20.6 µM [cytotoxic, full curve, poor fit] | – |
| COc1ccccc1C1NC(=O)CS1 (stereo not drawn) | – | inconclusive: 32.1% |
| O=C(O)CCc1ccc(-c2ccc(Br)cc2)o1 | inactive | – |
| CCCn1c(NC(=O)c2ccccc2Br)nc2ccccc21 | inconclusive: 29.1 µM [cytotoxic, single point] | – |
| OCC1(CC2CCCCO2)CCN(Cc2cccc(O)c2)CC1 (stereo not drawn) | inconclusive: 29.1 µM [rising, single point] | – |
| Cc1ccc(S(=O)(=O)N(CC2CO2)c2cccc([N+](=O)[O-])c2)cc1 (stereo not drawn) | inconclusive: 29.1 µM [cytotoxic, single point] | – |
| CCC1=Nc2cc(C(=O)NCCCOC)ccc2Sc2ccccc21 | active: 0.82 µM | – |
| COCCN1C[C@@H](CO)O[C@@H](n2cnc3c(NCC(C)C)ncnc32)C1 | inactive | – |
| C/C(=N\NC(=O)C1(C)CC1(Br)Br)c1cccc(NC(=O)c2ccc(C)o2)c1 (stereo not drawn) | inactive | – |
| S=C(NCCN1CCOCC1)N/N=C/c1c2ccccc2cc2ccccc12 | inconclusive: 35.5 µM [cytotoxic, single point] | – |
| COc1ccc(CNC(=O)c2cc(-c3cccs3)nc3ccccc23)c(OC)c1 | inactive | – |
| CCOc1ccccc1-c1cc(C(=O)N/N=C/c2ccc3c(c2)OCO3)c2ccccc2n1 | inconclusive: 29.1 µM [cytotoxic, single point] | – |
| CC(=O)c1ccc(-c2cnc3c(NC=O)cc(-c4ccc(C(=O)N5CCOCC5)cc4)cn23)cc1 | inconclusive: 16.4 µM [cytotoxic, single point] | – |
| CCCCCc1cc(=O)oc2c(C(CCN(CC)CC)c3ccc(N(C)C)cc3)c(OC)cc(OC)c12 (stereo not drawn) | inconclusive: 18.4 µM [cytotoxic, single point] | – |
| CC(C)C1C(=O)N(Cc2cn(CC3CCCCC3)nn2)CCS(=O)(=O)N1Cc1ccc(-c2ccccc2)cc1 (stereo not drawn) | inconclusive: 20.6 µM [cytotoxic, single point] | – |
| Cc1ccc(S(=O)(=O)N(C)C[C@@H]2Oc3ccc(NC(=O)CCC(F)(F)F)cc3CC(=O)N([C@@H](C)CO)C[C@@H]2C)cc1 | inconclusive: 2.06 µM [cytotoxic, full curve] | – |
| COC(=O)[C@@]12OC[C@]34[C@H]([C@@H](O)[C@@H]1O)[C@@]1(C)C(=O)C(O[C@@H]5OC(CO)[C@@H](O)[C@@H](O)[C@@H]5O)=C[C@@H](C)[C@@H]1C[C@H]3OC(=O)[C@H](OC(=O)/C=C(\C)C(C)(C)OC(C)=O)[C@@H]24 (stereo partly drawn) | inconclusive: 29.1 µM [cytotoxic, single point] | – |
